PubChem BioAssay AID743456, Peter MacCallum Cancer Centre, 2014

Purpose: 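Mimic library tested for viability and apoptosis changes under vorinostat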 (primary screen)
Cells: human HCT116-VR colon cancer cells, a vorinostat-resistant HCT116 line
Reagent: miRNA mimic
Time to read-out: about 3 days from transfection to readout; drug present for the last 24 h
Conditions: vorinostat at 2.5 µM final for 24 h
Read-out: 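Per-well live-cell protease fluorescence and caspase luminescence under 2.5 µM vorinostat for 24 h, scored as robust z-scores and against mock transfection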
Reading the numbers: viability robust z-score: higher = more viable cells; caspase robust z-score: higher = more caspase activity, more apoptosis
Rule for the call: 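a mimic counts as active if it lands in a lowered-viability class or a caspase-activation class; wells with too few cells without drug are left out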
Here is an unselected part of 878 reagents tested. 27 of all reagents (3.1%) count as active. 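27 mimics are marked active, unlike an earlier stated count of 24; the viability threshold is described inconsistently.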 A number with no mark means an inactive call. Not all columns of the deposit are shown. Not given: the amount of reagent.

miRNA | PubChem SID | viability robust z-score | caspase robust z-score | viability hit class | caspase hit class
hsa-miR-562 | SID160648204 | 0.53 | -0.61 | no change | no change
hsa-miR-625* | SID160648433 | -0.2 | -0.03 | no change | no change
hsa-miR-654-5p | SID160648306 | -2.57 | 1.75 | no change | no change
hsa-miR-206 | SID160648004 | -0.72 | 1.47 | no change | no change
hsa-miR-520d-5p | SID160648153 | -0.14 | -0.19 | no change | no change
hsa-miR-484 | SID160648099 | -0.11 | -0.2 | no change | no change
hsa-miR-371-5p | SID160648392 | 0.82 | 0.98 | no change | no change
hsa-miR-422a | SID160648073 | -1.4 | 2.11 | no change | no change
hsa-miR-129-3p | SID160648378 | -1.46 | -0.74 | no change | no change
hsa-miR-516b | SID160648157 | -2.65 | 2.73 | no change | no change
hsa-miR-566 | SID160648207 | 1.03 | -0.53 | no change | no change
hsa-miR-532-5p | SID160648192 | -1.49 | -0.37 | no change | no change
hsa-miR-644 | SID160648290 | -3.2 (active) | 1.43 | reduced viability | no change
hsa-miR-1306 | SID160648703 | -1.21 | 3.87 | no change | no change

Copied from above, 2 entries:
miRNA | PubChem SID | viability robust z-score | caspase robust z-score | viability hit class | caspase hit class
hsa-miR-206 | SID160648004 | -0.72 | 1.47 | no change | no change
hsa-miR-520d-5p | SID160648153 | -0.14 | -0.19 | no change | no change

The list goes on:
miRNA | PubChem SID | viability robust z-score | caspase robust z-score | viability hit class | caspase hit class
hsa-miR-1224-5p | SID160648572 | 0.15 | -0.65 | no change | no change
hsa-miR-532-3p | SID160648416 | -0.86 | -1.12 | no change | no change
hsa-miR-409-3p | SID160648094 | -1.19 | -0.35 | no change | no change
hsa-let-7f | SID160647874 | 0.62 | -0.1 | no change | no change
hsa-miR-191* | SID160648083 | 1.52 | -0.1 | no change | no change
hsa-miR-584 | SID160648226 | -0.14 | 3.66 | no change | no change
hsa-miR-432* | SID160648115 | -1.8 | 2.17 | no change | no change
hsa-miR-149 | SID160647992 | -0.03 | -0.42 | no change | no change
hsa-miR-143 | SID160647977 | 0.74 | -0.22 | no change | no change
hsa-miR-769-5p | SID160648324 | -0.36 | -0.98 | no change | no change
hsa-miR-450b-3p | SID160648521 | -0.5 | -0.6 | no change | no change
hsa-miR-550 | SID160648425 | -0.42 | 1.53 | no change | no change
hsa-miR-378* | SID160648043 | -0.82 | -0.57 | no change | no change
hsa-miR-323-3p | SID160648056 | -0.88 | 0.84 | no change | no change
hsa-miR-496 | SID160648118 | 0.98 | -0.5 | no change | no change
hsa-miR-26a-2* | SID160648391 | 0.74 | -0.55 | no change | no change
hsa-miR-448 | SID160648079 | -0.21 | 1.86 | no change | no change
hsa-miR-877* | SID160648575 | 0.06 | 0.11 | no change | no change
hsa-miR-760 | SID160648550 | -0.32 | -0.46 | no change | no change
hsa-miR-24-2* | SID160648343 | -0.06 | 1.85 | no change | no change
